According to US20200239570A1 (CRESCENDO BIOLOGICS, published 2020):
Positions count from the first letter of the chain named. Results are given in words; binding and its absence hold for the method and conditions named. Some entries that bind do so weakly or less than the wild type. Each block holds one binder with its values, some of them ahead of it.

The chains behind the UniProt entries cited, without tags or fusion partners. Where a name states a change or a piece, a line headed by the entry shows the natural chain unless it says otherwise.
UniProt Q15116: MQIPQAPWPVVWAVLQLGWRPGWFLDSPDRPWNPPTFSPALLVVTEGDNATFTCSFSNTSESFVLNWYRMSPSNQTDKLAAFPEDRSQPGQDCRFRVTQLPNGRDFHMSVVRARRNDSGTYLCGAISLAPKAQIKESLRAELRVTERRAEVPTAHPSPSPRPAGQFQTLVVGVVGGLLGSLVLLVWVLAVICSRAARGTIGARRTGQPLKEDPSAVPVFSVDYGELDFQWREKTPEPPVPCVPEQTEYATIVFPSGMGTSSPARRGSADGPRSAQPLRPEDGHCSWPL

Key:
[1] = biological target: human PD-1 expressed on cells (CHO human PD-1 cells) (human) (UniProt Q15116); experiment: FMAT binding assay on CHO human PD-1 cells, detection by anti-His
[2] = biological target: cynomolgus PD-1 (Acro Biosystems cat no. PD1-C5254) (cynomolgus) (UniProt B0LAJ3); experiment: HTRF binding assay
[3] = biological target: huPD-1 extracellular domain (PepScan peptide arrays) (human) (UniProt Q15116); experiment: PepScan ELISA, linear and constrained PD-1 peptide arrays, 1.1 monovalent
[4] = biological target: human PD-1 expressed on cells (CHO human PD-1 cells) (human) (UniProt Q15116); experiment: FMAT, His-tagged VH on CHO human PD-1 cells

B1: 1.21 (VHH)
VHH: EVQLVESGGGLVQPGRSLRLSCAASGFTFDDYAMHWVRQAPGKDLEWVSGISWNGGSMGYAASVKGRFTISRDNAKNSLYLQMNSLRAEDTALYYCVREKGPGLTGSTADYYGLDVWGQGTMVTVSS
notes: also called VH single domain antibody 1.21; Humabody VH 1.21
- binding [1]: binds

B2: VH single domain antibody 1.1 (VHH)
VHH: B1 VHH with V5L, L11S, Y32H, D44G, G55S, A62D, G66D, N77S
notes: human VH single domain antibody (Humabody), purified through its C-terminal His tag; also called Humabody 1.1; clone 1.1
- binding [2]: binds
- binding [3]: binds

Continued, values first:

- binding [2]: binds
B3: VH single domain antibody 1.2 (VHH)
VHH: B1 VHH with R98K, E99D, T105I, M122T
notes: human VH single domain antibody

- binding [4]: binds
B4: Humabody 1.20 (VHH)
VHH: B1 VHH with A62D
